These are yes or no findings as the source states them, for the method shown. In cells and extracts the contact can be indirect. Some binding calls cover weakened binding; strength is not graded here. Tags and fused reporters may be left off the sequences shown. Blank lines part the entries; values can stand above or below the binder they belong to.
Molecular target: Enolase-1 (human (endogenous in H357CisR)) (UniProt P06733)
Test: co-IP; cells lysed in 1% digitonin 30 min on ice; lysate with primary antibody 1-4 h, Protein A/G PLUS-Agarose overnight at 4°C; 4 washes in 0.2% digitonin; SDS-PAGE and immunoblot

Chains of the proteins cited; added tags and fusions are not shown.
UniProt P06733: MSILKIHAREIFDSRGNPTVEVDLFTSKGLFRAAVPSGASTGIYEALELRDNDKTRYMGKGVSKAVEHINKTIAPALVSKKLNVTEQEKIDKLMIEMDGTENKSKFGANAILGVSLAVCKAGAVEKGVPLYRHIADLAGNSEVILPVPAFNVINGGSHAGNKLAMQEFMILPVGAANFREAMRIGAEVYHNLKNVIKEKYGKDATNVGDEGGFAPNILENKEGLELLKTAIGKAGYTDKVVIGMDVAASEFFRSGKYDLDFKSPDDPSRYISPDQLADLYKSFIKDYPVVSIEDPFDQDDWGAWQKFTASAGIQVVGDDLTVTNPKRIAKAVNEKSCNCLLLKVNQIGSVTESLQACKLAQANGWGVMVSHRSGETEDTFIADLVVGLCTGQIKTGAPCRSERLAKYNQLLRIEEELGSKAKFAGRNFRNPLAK

binding: binds
B1: CMTM6 (protein, UniProt Q9NX76 1-183)
chain: MENGAVYSPTTEEDPGPARGPRSGLAAYFFMGRLPLLRRVLKGLQLLLSLLAFICEEVVSQCTLCGGLYFFEFVSCSAFLLSLLILIVYCTPFYERVDTTKVKSSDFYITLGTGCVFLLASIIFVSTHDRTSAEIAAIVFGFIASFMFLLDFITMLYEKRQESQLRKPENTTRAEALTEPLNA

binding: binds
B2: CMTM6 (MYC-DDK tagged), from pCMV6-Entry-CMTM6 (protein, UniProt Q9NX76 1-183)
chain: B1 chain
